Here are results for one substance from article PMC6945596.

The chains behind the UniProt entries cited, without tags or fusion partners.
UniProt Q80SW1: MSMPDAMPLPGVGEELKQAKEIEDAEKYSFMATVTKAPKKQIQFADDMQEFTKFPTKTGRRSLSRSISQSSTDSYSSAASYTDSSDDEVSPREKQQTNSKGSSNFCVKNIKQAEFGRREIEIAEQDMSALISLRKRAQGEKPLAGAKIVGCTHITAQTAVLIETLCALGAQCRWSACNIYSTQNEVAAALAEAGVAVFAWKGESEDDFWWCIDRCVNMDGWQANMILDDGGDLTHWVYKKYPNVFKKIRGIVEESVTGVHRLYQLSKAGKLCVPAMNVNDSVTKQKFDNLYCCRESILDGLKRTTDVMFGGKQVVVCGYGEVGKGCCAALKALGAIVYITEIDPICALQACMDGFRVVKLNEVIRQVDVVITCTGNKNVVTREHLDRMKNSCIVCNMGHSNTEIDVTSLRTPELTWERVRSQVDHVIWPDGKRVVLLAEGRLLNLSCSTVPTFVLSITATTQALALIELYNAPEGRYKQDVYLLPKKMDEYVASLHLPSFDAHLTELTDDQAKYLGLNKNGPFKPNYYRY

No constants are given. Whether binding was seen depends on the method and setting. Binding seen in cells or lysates may run through a third protein. A yes stands for co-enrichment or nearness to the bait. Other partners may have been found.

This assay concerns the target T1, sodium-dependent chloride/bicarbonate exchanger Ncbe (mouse (endogenous in choroid plexus)) (UniProt Q5DTL9).
T1 sequence: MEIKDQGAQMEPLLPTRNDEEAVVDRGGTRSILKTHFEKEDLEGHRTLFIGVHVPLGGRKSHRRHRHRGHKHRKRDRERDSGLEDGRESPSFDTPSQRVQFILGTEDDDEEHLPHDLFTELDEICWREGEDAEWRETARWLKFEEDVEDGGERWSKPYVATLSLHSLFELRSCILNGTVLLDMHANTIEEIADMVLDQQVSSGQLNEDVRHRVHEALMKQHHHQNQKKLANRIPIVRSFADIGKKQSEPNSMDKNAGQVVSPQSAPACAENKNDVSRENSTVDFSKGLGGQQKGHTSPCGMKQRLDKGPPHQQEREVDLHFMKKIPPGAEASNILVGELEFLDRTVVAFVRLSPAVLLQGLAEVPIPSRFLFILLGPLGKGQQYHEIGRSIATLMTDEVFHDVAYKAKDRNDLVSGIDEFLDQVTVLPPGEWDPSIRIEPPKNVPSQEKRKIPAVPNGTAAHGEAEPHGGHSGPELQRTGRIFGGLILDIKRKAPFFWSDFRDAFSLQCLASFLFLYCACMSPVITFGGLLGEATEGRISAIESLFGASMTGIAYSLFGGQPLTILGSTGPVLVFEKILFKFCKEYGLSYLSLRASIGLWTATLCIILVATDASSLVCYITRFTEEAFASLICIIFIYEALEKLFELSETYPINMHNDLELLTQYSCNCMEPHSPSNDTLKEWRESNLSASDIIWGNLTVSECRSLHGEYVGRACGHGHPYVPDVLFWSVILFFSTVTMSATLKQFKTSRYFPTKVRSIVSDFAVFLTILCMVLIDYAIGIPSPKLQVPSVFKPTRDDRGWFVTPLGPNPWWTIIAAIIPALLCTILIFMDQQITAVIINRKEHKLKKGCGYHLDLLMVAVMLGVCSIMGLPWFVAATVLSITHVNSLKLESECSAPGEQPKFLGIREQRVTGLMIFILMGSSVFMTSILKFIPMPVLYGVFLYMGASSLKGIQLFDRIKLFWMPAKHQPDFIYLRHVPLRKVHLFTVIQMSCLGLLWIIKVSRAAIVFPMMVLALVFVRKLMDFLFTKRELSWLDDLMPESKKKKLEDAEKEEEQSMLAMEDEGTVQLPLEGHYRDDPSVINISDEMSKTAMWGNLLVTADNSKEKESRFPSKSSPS
Description: affinity purification with mass spectrometry; mouse choroid plexus lysate (50 mM Tris-HCl pH 7.4, 150 mM NaCl, 0.25% Na-deoxycholate, 1% Triton X-100, 1 mM EDTA), ~150 ug lysate with 1 ug anti-Ncbe antibody, 4 °C 1 h, protein-A-agarose, washed three times, eluate processed for mass spectrometry.

Take “IP3R Binding protein released with Inositol 1,4,5-Trisphosphate (IRBIT) (from UniProt Q80SW1 1-530)”: the binding result was “binds”.
